Assay results published in article PMC8433439, “Bivalent ligands promote endosomal trafficking of the dopamine D3 receptor-neurotensin receptor 1 heterodimer” (Communications Biology, 2021).
No constants are given. Whether binding was seen depends on the method and setting. Binding seen in cells or lysates may run through a third protein. Some entries that bind do so weakly or less than the wild type.

Assays:
[1] = biological target: D3R-Nluc (IL6-D3R-GGGAS-Nluc) (human) (UniProt P35462); assay: FRET or BRET; live-cell BRET imaging, HEK293SL cells, 100 ng D3R-Nluc donor, 400 ng mVenus acceptor, 10 µM coelenterazine 400a, HBSS; before and after 10 nM ligand 1d
[2] = biological target: D3R-Rluc (human dopamine D3 receptor fused to Renilla luciferase Rluc8) (human) (UniProt P35462); assay: FRET or BRET; BRET saturation in live HEK293T cells: constant BRET donor (100 ng D2SR-Rluc or 500 ng D3R-Rluc; Nluc in place of Rluc in one series), 0-800 ng NTSR1-mVenus, PBS, 5 µM coelenterazine-h, room temperature; vehicle, 1 µM monovalent ligands (lowered BRETmax), 10 nM bivalent ligands (raised BRETmax for D3R), 10 µM haloperidol preincubation
[3] = biological target: D3R-Nluc (IL6-D3R-GGGAS-Nluc) (human) (UniProt P35462); assay: as above
[4] = biological target: D2SR-Rluc (dopamine D2 receptor, short form, fused to Rluc8) (UniProt P14416); assay: as above
[5] = biological target: D3R-Rluc (human dopamine D3 receptor fused to Renilla luciferase Rluc8) (human) (UniProt P35462); assay: FRET or BRET; BRET displacement in live HEK293T cells: 500 ng D3R-Rluc, 100 ng NTSR1-mVenus, 0-150 ng non-labelled NTSR1 or CXCR4 plasmid; ΔBRET induced by 10 nM 1d or 1 µM NT(8-13)
[6] = biological target: NTSR1-ProLink (NTSR1 fused in frame with the PK1 sequence) (human) (UniProt P30989); assay: split reporter; DiscoverX PathHunter enzyme fragment complementation, HEK293 stably expressing β-arrestin2-enzyme acceptor, one ProLink-tagged receptor expressed alone; stimulated 5 h at 37 °C (quinpirole, NT(8-13) or bivalent ligands)
[7] = biological target: D3R-ProLink (D3R C-terminally tagged with ARMS2-PK2) (human) (UniProt P35462); assay: split reporter; DiscoverX PathHunter enzyme fragment complementation, HEK293 stably expressing β-arrestin2-enzyme acceptor, 2 µg D3R-ProLink cotransfected with 0.5 µg untagged NTSR1; stimulated 5 h at 37 °C with NT(8-13), quinpirole (no change) or bivalent ligands; 1 µM haloperidol preincubation in some
[8] = biological target: wild-type human dopamine D3 receptor (human) (UniProt P35462); assay: proximity ligation; in situ PLA in HEK293T cells transiently transfected with wild-type D3R and NTSR1 (method in Supplementary Methods)

Measured: binding

NTSR1-mVenus (neurotensin receptor 1 tagged with the mVenus fluorescent protein) (from UniProt P30989 1-418)
binds: [1] | [2] | [3] | [4] | [5]

β-arrestin2 fused to an engineered galactosidase (enzyme acceptor, DiscoverX PathHunter) (from UniProt P32121 1-409)
binds: [6]

wild-type human neurotensin receptor 1 (from UniProt P30989 1-418)
binds: [7] | [8] | [5]
